# Source: patent US20210046061A1, “METHODS AND COMPOSITIONS FOR TREATING HERPESVIRUS INDUCED CONDITIONS” (TRUSTEES OF BOSTON UNIVERSITY, priority 2015, published 2021)
# At least one structure is not confirmed: it was looked up by name or label, or the drawing left a doubt.
# How the values were obtained:
# [1] = test system: BGLF4 (EBV-PK) transcript in P3HR1 cells; assay: Protein kinase (BGLF4) mRNA expression assay, quantitative real-time RT-PCR; type: cell-based, human; conditions: all concentrations tested
# Experimental: (§1) To measure whether Chidamide could induce EBV associated transcripts, the induction of mRNA for the protein kinases TK (FIG. 1A) and BGLF4 (FIG. 1B) in EBV-positive lymphoma cell lines was measured after exposure to different concentrations of the short-chain fatty acid, sodium butyrate (NaB), or the benzamide, chidamide (chid), for 24 hrs. Transcripts were quantitated by quantitative real-time RT-PCR.
# (§2) The EBV-positive B lymphoma cell line P3HR1 was used in the study. The P3HR1 cell line was originally derived from Burkitt's lymphoma patient. EBV maintains a latent state of replication in this cell line. These cells were maintained in RPMI 1640 with 10% fetal bovine serum containing 100 U penicillin per ml and 100 μg streptomycin per ml.
# (§3) P3HR1 cells were seeded in 60 mm plates containing 3×10^6 cells in 3 ml of fresh growth media. Appropriate concentrations of HDAC inhibitors were added to the plate and cells were incubated in the presence of HDAC inhibitors for 6 h, 24 h, 48 h, or as needed. Cells were harvested by centrifugation and washed once in cold PBS. Total cellular RNA was then extracted. To measure the relative level of TK mRNA in various total RNA preparations, reverse transcription and quantitative PCR using real time PCR analysis were used. […] The relative level of TK expression in a sample was calculated following normalization of β-actin expression level.
# [2] = test system: viral TK (EBV thymidine kinase) transcript in P3HR1 cells; assay: Thymidine kinase (TK) mRNA expression assay, quantitative real-time RT-PCR; type: cell-based, human; conditions: all concentrations tested
# Experimental: as §1, §2, §3
smiles,measurement,setting,value
Nc1cc(F)ccc1NC(=O)c1ccc(CNC(=O)/C=C/c2cccnc2)cc1 [chidamide],induction of BGLF4 expression compared with 1.0 mM sodium butyrate,[1],clearly superior
same,induction of viral TK expression compared with 1.0 mM sodium butyrate,[2],clearly superior
